Assay results from patent US3968207A, “Method of controlling fleas and ticks on cats and dogs” (priority 1975, dated 1976).
“And” between values parts separate entries of the source, which are not always exact repeats. Equal entries are not always repeated. Further values from the same series stand in other lists.

Tested on: Ctenocephalides felis
Experiment: 2% powder for control of flea infestations on dogs
Type: in vivo
Details: 20 mg/kg
Experimental: An experiment was carried out to determine the activity of O,O,O',O'-tetramethyl O,O'-thiodi-p-phenylene phosphorothioate 2% powder for the control of Ctenocephalides felis infestations on dogs. A group of 40 dogs of mixed breeds were obtained from a licensed laboratory animal dealer and housed in individual cages. The 2% powder was formulated from a 25% dust concentrate containing […] O,O,O',O'-tetramethyl O,O'-thiodi-p-phenylene phosphorothioate, 24% celite 209 and 50% acidic kaolin. Talc was used to dilute the concentrate to 2% active ingredient. Each dog was infested with 100 1 day old adult C. felis 72 hours prior to treatment and reinfested on a weekly basis for 6 weeks beginning 7 days after treatment. Each dog was treated with 20 mg. actual drug per kg. body weight formulated as a 2% powder. Five or more dogs were treated with a blank powder and used as infested controls. Table XV summarizes average dead fleas in treated versus average dead fleas in control.

## COP(=S)(OC)Oc1ccc(Sc2ccc(OP(=S)(OC)OC)cc2)cc1 [O,O,O',O'-tetramethyl O,O'-thiodi-p-phenylene phosphorothioate]
Trial 1, individual dogs, week 0
  No. of Dead Fleas Recovered in 48 Hrs.: 48 and 29 and 33
Trial 1, individual dogs, week 1
  No. of Dead Fleas Recovered in 48 Hrs.: 19 and 60 and 46
Trial 1, individual dogs, week 2
  No. of Dead Fleas Recovered in 48 Hrs.: 37 and 30 and 25 and 33
Trial 1, individual dogs, week 3
  No. of Dead Fleas Recovered in 48 Hrs.: 39 and 50 and 38
Trial 1, individual dogs, week 4
  No. of Dead Fleas Recovered in 48 Hrs.: 28 and 32 and 13 and 37
Trial 1, individual dogs, week 5
  No. of Dead Fleas Recovered in 48 Hrs.: 45 and 19 and 57 and 33 and 10
Trial 1, individual dogs, week 6
  No. of Dead Fleas Recovered in 48 Hrs.: 30 and 12
Trial 2, individual dogs, week 0
  No. of Dead Fleas Recovered in 48 Hrs.: 72 and 39 and 54 and 55 and 49 and 78 and 57 and 38 and 42 and 59 and 30 and 48 and 20 and 31 and 25 and 68 and 35 and 10
Trial 2, individual dogs, week 1
  No. of Dead Fleas Recovered in 48 Hrs.: 48 and 44 and 38 and 46 and 49 and 28 and 74 and 32 and 20 and 55 and 33 and 59 and 37 and 39 and 47
Trial 2, individual dogs, week 2
  No. of Dead Fleas Recovered in 48 Hrs.: 34 and 36 and 41 and 43 and 49 and 62 and 39 and 30 and 31 and 75 and 35 and 73 and 55 and 59 and 37 and 60
Trial 2, individual dogs, week 3
  No. of Dead Fleas Recovered in 48 Hrs.: 45 and 41 and 38 and 48 and 47 and 42 and 27 and 35 and 44 and 80 and 28 and 50 and 72 and 37 and 55
Trial 2, individual dogs, week 4
  No. of Dead Fleas Recovered in 48 Hrs.: 35 and 39 and 51 and 34 and 23 and 29 and 50 and 36 and 26 and 7 and 45 and 55 and 42 and 32 and 75 and 111 and 73
Trial 2, individual dogs, week 5
  No. of Dead Fleas Recovered in 48 Hrs.: 27 and 21 and 45 and 4 and 2 and 28 and 30 and 47 and 11 and 34 and 25 and 52 and 48 and 29 and 50 and 40 and 36
Trial 2, individual dogs, week 6
  No. of Dead Fleas Recovered in 48 Hrs.: 24 and 10 and 16 and 4 and 3 and 20 and 53 and 50 and 7 and 44 and 8 and 18 and 49 and 35 and 27 and 41
